# Measured values as given in the supplement of paper PMC3334620.
# In all, about 33,000 sequences were measured (“E-score (-0.5 to 0.5)”: median about -0.0014, highest 2% from about 0.25 on). This is one part of the list.
# Target: T1, Cad1 (UniProt P24813)
# T1 sequence: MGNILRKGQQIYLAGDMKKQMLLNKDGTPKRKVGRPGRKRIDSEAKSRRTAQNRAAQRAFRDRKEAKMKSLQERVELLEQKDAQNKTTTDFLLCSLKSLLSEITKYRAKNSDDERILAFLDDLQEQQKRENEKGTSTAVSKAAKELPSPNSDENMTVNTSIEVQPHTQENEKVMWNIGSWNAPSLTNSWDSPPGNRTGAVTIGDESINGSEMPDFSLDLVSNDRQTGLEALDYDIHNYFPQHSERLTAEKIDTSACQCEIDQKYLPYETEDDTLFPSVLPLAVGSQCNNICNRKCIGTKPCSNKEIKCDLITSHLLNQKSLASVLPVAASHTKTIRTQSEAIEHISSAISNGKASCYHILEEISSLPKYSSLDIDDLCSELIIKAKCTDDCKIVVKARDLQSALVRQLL
# Assay: PBM E-score (8-mer binding enrichment) (E-score (-0.5 to 0.5)); higher = stronger / more preferred TF binding
# Settings: protein concentration: 100 nM; construct: GST-full length
# Procedure, shortened: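 Using PURExpress in vitro transcription/translation, GST-tagged yeast transcription factors were made in full-length or DNA-binding-domain form. These were applied at about 100-200 nM to double-stranded universal all-10-mer Agilent arrays, and bound protein was detected with fluorescent anti-GST. Scans were normalised with masliner before the Universal PBM Analysis Suite assigned E-scores to ungapped eight-base words pooled with their reverse complements.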
row,Sequence,PBM E-score
1,ACACACGT,-0.0487
2,AGCAAAAA,0.0435
3,TGGACTAA,0.0345
4,CCGAGGCG,0.0257
5,TCACGGCA,0.16
6,ACTATCGG,0.0996
7,CAATGTCA,0.122
8,CTTCCGTA,0.0867
9,ACGTAATC,0.286
10,AAGGTCAT,-0.0403
11,CGGTGCCC,-0.0813
12,AATTGAGT,0.101
13,CTGTAACA,-0.195
14,AAAAAAGT,-0.06
15,ACTCTGTG,0.0645
16,CCACATCA,-0.0769
17,ATGGATTC,0.0094
18,AACCCCGG,-0.305
19,ACCCCTGA,-0.0586
20,GCAATGAA,0.0772
21,GTGATAGA,0.0543
22,AGTTGGCA,-0.0141
23,ACTTCACT,-0.00075
24,AATAAGGA,-0.0943
25,ATTTAAAG,0.151

row,Sequence,PBM E-score
1,GCGGAAGC,0.0712
2,CCGCGATC,0.17
3,CTGGGACC,-0.241
4,AACTCCAG,-0.139
5,GGCTTAGA,-0.052
6,CATTCCAC,-0.0176
7,CTGCTCAA,-0.121
8,AACCATAG,-0.0765
9,GGCAAGCA,-0.0921
10,ACTGTGAC,0.226
11,AGATAAAG,-0.0645
12,ACAATCCA,0.191
13,AACTTAGC,0.0408
14,ATTTAAAT,0.0974
15,GGATTGCC,-0.104
16,ATGACTCG,-0.131
17,ACACGAGC,-0.072
18,ACCTTAAT,-0.0443
19,CAATTCAA,0.0951
20,AATCGGGC,0.0582
21,CAAGCATG,-0.00052
22,CATTCGCG,0.127
23,CGACGGGC,-0.0324
24,CTAACGGC,0.00942
25,ACATATAT,0.155

# Copied from above for reference:
row,Sequence,PBM E-score
10,ACTGTGAC,0.226
11,AGATAAAG,-0.0645
12,ACAATCCA,0.191
13,AACTTAGC,0.0408
14,ATTTAAAT,0.0974

# Remaining list, next part

row,Sequence,PBM E-score
1,ACGACGGC,-0.0955
2,CACTACGG,0.00941
3,GTCAGTGA,-0.001
4,TCCGATCA,0.0943
5,AGAGAAAA,0.158
6,ATTGGACG,0.0394
7,GTATATAA,0.182
8,AGTGACGG,0.00602
9,ACTTTGCC,-0.085
10,CCCTTTGC,-0.143
11,ATTTCGGC,0.0331
12,AGCCAAGA,-0.0925
13,AGTGTTTA,0.232
14,CAGCTGCC,0.0958
15,GATTGGCA,-0.00546
16,AGCTAGAC,0.0216
17,CTACCCTC,-0.121
18,ACCAGCAA,0.0331
19,ACGAGCCT,-0.156
20,GCCCTCGA,-0.0898
21,CGTAGGCC,-0.103
22,AGCGTATC,-0.0329
23,GCGATCAA,0.0564
24,GTCATGTA,-0.0686
25,GCACCCAA,-0.00062

row,Sequence,PBM E-score
1,CTAAGCAG,-0.078
2,ATGGGTTG,0.133
3,TCAATCCA,-0.00731
4,CCCGTCTC,-0.183
5,TCCGAGGA,0.105
6,CCGGTCCG,-0.104
7,ATGAGATA,0.218
8,GGACTTAC,-0.047
9,AGAGGCAT,-0.0737
10,AGACATAC,-0.0253
11,CCAGCAAC,-0.0725
12,CGGATTTA,0.12
13,AATTTAGG,0.195
14,ACGGCGAC,-0.0568
15,ATGCATCG,0.114
16,AAAGAGAC,0.0946
17,AGCGTCCG,-0.00766
18,AGTGTGAA,0.11
19,GAATGTTA,0.181
20,GACAACTA,0.0404
21,ATCGTAGC,0.0921
22,ACTCCGGC,-0.00802
23,GATGCTAA,0.102
24,AAGCATAA,0.0493
25,CGTGGTAC,-0.101

row,Sequence,PBM E-score
1,TCCATACA,-0.117
2,AAAAATGG,0.14
3,ACCGTGAC,-0.083
4,ACTTGACC,-0.192
5,AGAAGACA,-0.101
6,CGGAGCCC,-0.331
7,CTATAGCA,-0.0148
8,AGGAGAGC,-0.257
9,AAGCGTTG,-0.0702
10,TATTTCCA,0.027
11,CCGGGCAG,-0.114
12,CAGCCGCG,0.0589
13,ATACAGTA,-0.00352
14,CCTCCTGA,-0.257
15,CTCCGGTC,-0.0739
16,GAATGGCC,0.0215
17,CAGTCGTC,-0.164
18,CATCGAGC,0.0476
19,AGTCCTAG,-0.284
20,CCTCCGTA,-0.126
21,GAGTATGC,0.0723
22,CATTCAAG,-0.103
23,CTACTTAA,-0.0817
24,CAGCGTAG,-0.067
25,CATGTCGG,-0.0678

row,Sequence,PBM E-score
1,AAGGACCG,-0.21
2,AGCGTCTC,-0.129
3,GGCTCACA,0.0204
4,GACACGTA,-0.0821
5,TACTAGGA,0.0557
6,CCAATCGG,-0.157
7,ACCGAGCC,-0.0302
8,AGGACACT,-0.195
9,CGTAAAGC,-0.0788
10,TAATATCA,0.167
11,AGAAAAGC,0.0297
12,GACGAGAA,0.116
13,GGCGCACA,0.00969
14,CCCGGTAG,-0.127
15,TTGGGAAA,0.116
16,CTCATCCA,0.175
17,ATCTTACA,0.202
18,CGAACTAC,-0.00144
19,ACTATAAC,0.0698
20,CTGAGAGC,-0.174
21,AGAGGTCC,0.0104
22,ACAGTAGC,-0.0431
23,GATTGCAA,0.117
24,AGATGCGC,0.0158
25,CGATTCGC,0.145

# Looked up one by one from the entries so far:
row,Sequence,PBM E-score
23,GATTGCAA,0.117
7,ACCGAGCC,-0.0302
15,TTGGGAAA,0.116
12,GACGAGAA,0.116
14,CCCGGTAG,-0.127
2,AGCGTCTC,-0.129
18,CGAACTAC,-0.00144

# Following part.

row,Sequence,PBM E-score
1,GCCGACGA,0.0989
2,ACGTAGAC,-0.247
3,CCAAGAAG,-0.0206
4,CCGCATAA,0.0761
5,CGGCACTA,0.055
6,CTGACATA,0.205
7,ACTATTCG,0.161
8,AAATCTTA,0.0837
9,CTTTCGTC,-0.0694
10,AAAGCGGA,0.0319
11,CATCCGAA,0.0882
12,CGGCCGTC,-0.0442
13,AGGCGGCG,-0.0441
14,CACTGCCC,-0.0471
15,CTTGGAGC,-0.0155
16,GCACCTCC,-0.224
17,CATGGAGC,-0.126
18,GCCGTATA,0.144
19,ACTATCCC,-0.261
20,CGGGTAAG,-0.139
21,CGTTAAAA,-0.171
22,AAGAGCGC,0.0569
